What all share (experiment): co-IP; S2 cells cotransfected with UAS plasmids and actC5-GAL4, 72 h expression; immunoprecipitation with rabbit anti-GFP antibodies; Western blots with anti-GFP, anti-FLAG or anti-HA
Background: In western blotting, separated proteins are transferred to a membrane and probed.

Assay [1] deals with T1, GFP-Mfap1^1-229 (Drosophila) (UniProt Q9W062).
T1 sequence: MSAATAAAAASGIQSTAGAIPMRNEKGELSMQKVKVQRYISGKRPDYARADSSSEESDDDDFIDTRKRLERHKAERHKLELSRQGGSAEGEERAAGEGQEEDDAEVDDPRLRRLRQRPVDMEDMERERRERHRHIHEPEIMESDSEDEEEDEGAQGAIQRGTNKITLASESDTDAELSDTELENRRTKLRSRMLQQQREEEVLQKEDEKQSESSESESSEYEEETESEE

Assay [2] addresses T2, GFP-Mfap1^230-478 (Drosophila) (UniProt Q9W062).
T2 sequence: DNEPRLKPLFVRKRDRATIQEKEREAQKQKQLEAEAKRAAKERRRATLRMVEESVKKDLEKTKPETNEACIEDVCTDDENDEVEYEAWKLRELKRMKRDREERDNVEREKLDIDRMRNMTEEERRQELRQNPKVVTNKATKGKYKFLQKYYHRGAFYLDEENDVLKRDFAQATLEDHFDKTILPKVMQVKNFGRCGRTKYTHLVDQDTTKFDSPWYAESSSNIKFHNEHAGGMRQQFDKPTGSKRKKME

Assay [3] has as its target T3, Mfap1-GFP (C-terminally GFP-tagged full length Mfap1, 1-478) (Drosophila) (UniProt Q9W062).
T3 sequence: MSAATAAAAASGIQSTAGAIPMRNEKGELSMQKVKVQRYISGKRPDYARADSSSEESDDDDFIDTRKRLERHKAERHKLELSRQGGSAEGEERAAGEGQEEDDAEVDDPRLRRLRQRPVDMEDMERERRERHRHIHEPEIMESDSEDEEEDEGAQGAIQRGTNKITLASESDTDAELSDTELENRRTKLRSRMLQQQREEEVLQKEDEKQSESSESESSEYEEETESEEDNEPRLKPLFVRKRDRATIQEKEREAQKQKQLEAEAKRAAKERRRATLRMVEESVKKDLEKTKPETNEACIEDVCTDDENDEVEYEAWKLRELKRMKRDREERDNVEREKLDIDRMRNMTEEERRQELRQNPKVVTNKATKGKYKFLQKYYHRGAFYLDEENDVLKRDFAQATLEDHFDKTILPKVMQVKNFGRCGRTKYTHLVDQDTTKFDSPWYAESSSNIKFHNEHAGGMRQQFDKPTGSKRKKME

No constants are given. Whether binding was seen depends on the method and setting. Binding seen in cells or lysates may run through a third protein. Some entries that bind do so weakly or less than the wild type. Tags and fused reporters may be left off the sequences shown.

This note sets out measurements from publication PMC5570293.

B1: HA-tagged TDP-43 (full length) (protein, UniProt O97468 1-531)
chain: MDFVQVSEEEGDEPIQLPAEEDGTLLLSTLQAQFPGSCGLKYRNLDTKAVRGVRSNEGRLFPPSVESGWGEYAYFCVFPKENKRKSDDNLENSTAKTKRIETRLRCTDLIVLGLPWKTTEESLREYFETYGEVLMAQIKKDTKSGQSKGFGFVRFGSYDAQMRVLTNRHLIDGRWCEVKVPNSKGMGHQVPCKVFVGRCTEDINSDDLREYFSKFGEVTDVFIPRPFRAFSFVTFLDPDVAQSLCGEDHIIKGVSVHVSNAAPKAEQNRNQQVQSYNYNSANSFGMHSYHPQGNHMNPGRNGHHRGNNQHNAHGGENAIVPNNHNIGTAGYGMGGNNYGGNSGGGYHNNGGNHSSGGNTNRQDGGSQYNSRQSNFHGMNQPHNGNVGGSNGWMNRGHLDMPNLQALGINSQGSSSSNQGQNMSNQSMLNLNSLPINPALVAAALNQWSLVGNQLQNQNQDQQGGNFLSWMAQNGGHNNANNFGGRKGPNNPNNNPAANGIKTDNSEPQNGNTGWSNQSSGSQNAAEKSNFL
Turning to B1, the binding result in assay [1] is given as “no binding”; in assay [2], “binds”; in assay [3], “binds”.
